Data taken from PubChem BioAssay AID540256 (National Center for Advancing Translational Sciences (NCATS), 2011).
In all, about 300,000 compounds went through this assay and about 3,700 (1.2%) were called active. The inconclusive results got no clear call from the source; some entries with a clear call stand among them for comparison. Calls come from the whole dose curve; tested in HEK293 cells. Where the call is inconclusive, the potency comes from a doubtful curve fit.

Experiment: qHTS for Inhibitors of binding or entry into cells for Lassa Virus; note: nearly all actives have a fitted effect of over 50% in size
Details: Lassa virus pseudotype entry inhibition, cell reporter; activity change, negative = inhibition: at 37.9 µM (top of the series) unless noted
% is set by controls: 0 for no effect and ±100 for the full control effect; potency is the fitted concentration of half-maximal effect.

SMILES	Potency	activity change, negative = inhibition
O=C(c1ccco1)c1cn(Cc2ccc(Cl)cc2)c2ccccc12	inconclusive: 20 µM [inhibitor, single point]	–
Cc1ccc(CNS(=O)(=O)c2cc3c4c(c2)CCN4C(=O)CC3)cc1	–	inactive: -6.87%
O=C(CSc1cccc[n+]1[O-])Nc1cc(S(=O)(=O)N2CCOCC2)ccc1N1CCOCC1	inconclusive: 17.8 µM [activator, single point]	–
C=CC[n+]1c(/C=C2\C=Cc3cc(C)ccc3N2CC)ccc2ccccc21	active: 7.3 µM	–
COc1cccc(-c2onc3ccc(C4(C)OCCO4)cc23)c1	inconclusive: 31.6 µM [inhibitor, single point]	–
CCN(CC)C(=O)CSc1nc(-c2ccccc2)cc(-c2ccc(OC)cc2)c1C#N	–	inactive: 10% [at 46.1 µM]
Cc1ccc(OCCn2cnc3cc([N+](=O)[O-])ccc3c2=O)cc1	–	inactive: -0.139%
FC(F)(F)c1ccc2c(c1)ncc1c(-c3ccccc3)nn(-c3ccccc3)c12	–	inactive: 0.83% [at 46.1 µM]
Cc1ccc(-n2nc(C(=O)NCc3ccc(F)cc3Cl)c3c4ccccc4n(C)c3c2=O)cc1	–	inactive: -7.62% [at 46.1 µM]
CCc1ccc(C(=O)NNC(=O)C2CCN(c3ncnc4sc(C)c(C)c34)CC2)cc1	inconclusive: 35.5 µM [inhibitor, partial curve, poor fit]	–
Cc1ncc(C(=O)Nc2ccccc2)[nH]1	inconclusive: 6.31 µM [activator, single point]	–
COc1ccc(NS(=O)(=O)c2cc(N)ccc2N2CCOCC2)cc1	inconclusive: 3.98 µM [activator, full curve, poor fit]	–
O=C(Nc1ccc(NC(=O)C2CC2)nc1)c1ccccn1	inconclusive: 22.4 µM [inhibitor, single point]	–
CCOc1ccccc1CNC(=O)C1CCN(C(=O)N2CCOc3ccc(Cl)cc32)CC1	inconclusive: 2.51 µM [inhibitor, partial curve, poor fit]	–
COc1ccc(-c2csc(NC(=O)c3cc(C)oc3C)n2)cc1OC	inconclusive: 12.6 µM [inhibitor, partial curve, poor fit]	–
O=C1SC(SCc2ccccc2)=N/C1=C\c1ccc(C(=O)O)cc1	–	inactive: 2.43%
CC(NC(=O)c1cc2sccc2n1C)c1ccc2c(c1)OCCO2 (configuration not stated)	inconclusive: 25.1 µM [inhibitor, single point]	–
O=C1C2C3C=CC(C3)C2C(=O)N1CCN1CCN(S(=O)(=O)c2ccc3ccccc3c2)CC1 (configuration not stated)	inconclusive: 7.08 µM [inhibitor, partial curve, poor fit]	–
COc1cc(C(=O)N2CCc3c([nH]c4ccccc34)C2c2ccc(F)cc2)cc(OC)c1OC (configuration not stated)	active: 8.91 µM	–
CC1=Nc2cc(C(=O)NC3CCC(C)CC3)ccc2Sc2c(C)ccc(C)c21 (configuration not stated)	inconclusive: 0.501 µM [inhibitor, full curve, poor fit]	–
CS(=O)(=O)Nc1ccc(C(=O)Nc2ccc3c(c2)OCCO3)cc1	inconclusive: 0.58 µM [activator, single point]	–
Cc1ccccc1Cn1cnc2c(oc3ccccc32)c1=O	inactive	–
COc1cc(NC(=O)c2cccs2)c(C(=O)OCC(=O)c2cc(C)n(-c3ccc(F)cc3)c2C)cc1OC	inconclusive: 3.16 µM [inhibitor, single point]	–

Three structures already listed, sorted by molar mass, largest number first:
SMILES	Potency	activity change, negative = inhibition
O=C(CSc1cccc[n+]1[O-])Nc1cc(S(=O)(=O)N2CCOCC2)ccc1N1CCOCC1	inconclusive: 17.8 µM [activator, single point]	–
CCN(CC)C(=O)CSc1nc(-c2ccccc2)cc(-c2ccc(OC)cc2)c1C#N	–	inactive: 10% [at 46.1 µM]
Cc1ccc(OCCn2cnc3cc([N+](=O)[O-])ccc3c2=O)cc1	–	inactive: -0.139%

Further entries

SMILES	Potency	activity change, negative = inhibition
CC1(C)CC(=O)C2=C(C1)OC(N)=C(C#N)C2c1ccc(OC(=O)N2CCOCC2)cc1 (configuration not stated)	inconclusive: 4.61 µM [inhibitor, full curve, poor fit]	–
Cn1c(=O)c([N+](=O)[O-])c(N2CCN(Cc3ccc4c(c3)OCO4)CC2)c2ccccc21	inconclusive: 28.2 µM [inhibitor, single point]	–
COc1ccc(-c2cn3nc(N4CCC(C(=O)NCc5cccc(Cl)c5)CC4)sc3n2)cc1	inconclusive: 1.26 µM [activator, partial curve, poor fit]	–
COC(=O)c1ccc(Nc2nc(-c3ccc(C)cc3)nc3ccccc23)cc1	–	inactive: 23.6% [at 46.1 µM]
CN(C(=O)c1ccco1)c1nc(-c2ccc(F)cc2)cs1	inconclusive: 1.26 µM [activator, single point]	–
Cc1nonc1NC(=O)CSc1nc2ccccc2o1	–	inactive: -1.39% [at 46.1 µM]
CN1CCN(S(=O)(=O)c2ccc(SCCOc3ccccc3)nc2)CC1	inconclusive: 29.1 µM [inhibitor, single point]	–
COc1ccc(Cn2c(-c3ccc(C)cc3)c[n+]3ccccc23)cc1	active: 6.31 µM	–
COc1ccc(NC(=O)CCCC(=O)OCC(=O)c2cccc(OC)c2)cc1	inconclusive: 3.55 µM [activator, single point]	–
CCCCSc1nc(CCC)cc(=O)[nH]1	–	inactive: -1.58%
Cc1ccc2c(CC(=O)N3CCN(c4cccc(Cl)c4)CC3)coc2c1C	–	inactive: 23.1% [at 46.1 µM]
CCc1nnc(NC(=O)CCC(=O)Nc2ccccc2)s1	–	inactive: -1.81%
COc1ccc(S(=O)(=O)N2CCCC2CNC(=O)C(=O)NCc2ccc3c(c2)OCO3)cc1 (configuration not stated)	inconclusive: 10 µM [inhibitor, partial curve, poor fit]	–
CCOc1ccc(N2C(=O)CC(N(CCc3ccc(OC)c(OC)c3)C(=S)Nc3ccccc3)C2=O)cc1 (configuration not stated)	inconclusive: 14.1 µM [inhibitor, partial curve, poor fit]	–
CCOC(=O)N1CCN(C(=O)CSCc2ccccc2C)CC1	–	inactive: -13.2%
C=CCC(NCc1ccccc1)c1ccco1 (configuration not stated)	–	inactive: 0.0301%
O=C1c2c(O)ccc(O)c2C(=O)c2c(NCCNCCO)ccc(NCCNCCO)c21	active: 0.501 µM	–
CCOC(=O)Nc1ccc2c(c1)C(=NNC(N)=S)c1ccccc1-2	inconclusive: 14.1 µM [inhibitor, partial curve, poor fit]	–
NC(=O)C1(N2CCCCC2)CCN(C(=O)c2ccc(-n3cnnn3)cc2)CC1	inconclusive: 35.5 µM [activator, single point]	–
COc1ccc(C2CC(c3ccccc3)=NN2C(=O)COC(=O)c2cccc(S(=O)(=O)N(C)C)c2)cc1 (configuration not stated)	inconclusive: 6.51 µM [inhibitor, single point]	–
CCOC(=O)C(C)(C)N(Cc1cccc(C)c1)S(=O)(=O)c1cccc([N+](=O)[O-])c1	inconclusive: 22.4 µM [inhibitor, single point]	–
Cc1cc(C)n2nc(-c3ccc(Cl)cc3)nc2n1	–	inactive: -5.11% [at 46.1 µM]
CCCCN(CC)CCNC(=O)c1cc2c(=O)[nH]c3ccc(C)cc3c2s1	inconclusive: 1.41 µM [inhibitor, single point]	–

SMILES	Potency	activity change, negative = inhibition
CCOC(=O)c1c(NC(=O)CSc2cn(CCNC(=O)c3ccc(OC)c(OC)c3)c3ccccc23)sc2c1CCC2	inconclusive: 4.47 µM [activator, partial curve, poor fit]	–
COC(=O)C1CCN(Cc2ccc(OCCCN3CCN(c4ccc([N+](=O)[O-])cc4)CC3)cc2)CC1	inconclusive: 35.5 µM [inhibitor, single point]	–
O=C(Nc1cccc2ncccc12)c1ccc(-c2ccc(Cl)cc2Cl)o1	inconclusive: 1.46 µM [inhibitor, full curve]	–
C=CCc1ccc(OCC(O)CN2CCc3ccccc3C2)c(OC)c1 (configuration not stated)	inconclusive: 35.5 µM [inhibitor, single point]	–
Cc1ccc(C)c(CN2C(=O)c3ccccc3S(=O)c3ccc(C(=O)N4CCN(c5ccccc5F)CC4)cc32)c1 (configuration not stated)	inconclusive: 2.82 µM [inhibitor, full curve, poor fit]	–
O=C(O)CCNC(=O)C12CC3CC(CC(C3)C1)C2	–	inactive: -0.461%
Cc1cc([N+](=O)[O-])ccc1NC(=O)C(C)N1CCN(c2ccccn2)CC1 (configuration not stated)	inconclusive: 1.12 µM [inhibitor, single point]	–
COc1ccc(OC)c(/C=N\NC(=O)c2ccc(-c3ccccc3)cc2)c1	inconclusive: 0.316 µM [activator, partial curve, poor fit]	–
Cc1cc(N2CCCCC2C)nc(-c2ccccc2O)n1 (configuration not stated)	inconclusive: 5.8 µM [activator, full curve, poor fit]	–
Cc1[nH]n(-c2ccccc2)c(=O)c1N=Nc1nccs1	inconclusive: 16.4 µM [inhibitor, single point]	–
Cc1ccc(C)c(COC(=O)c2cc([N+](=O)[O-])ccc2N2CCOCC2)c1	inconclusive: 11.2 µM [inhibitor, partial curve, poor fit]	–
COc1ccc2c(c1)sc(=N)n2C	–	inactive: -0.193%
Nc1cc(=O)[nH]c(=S)n1-c1ccccc1	inconclusive: 35.5 µM [activator, single point]	–
COc1cc2c(cc1OC)C(COc1ccc(C(C)C)cc1)N(C(=O)c1ccc(S(=O)(=O)N3CCCC3)cc1)CC2 (configuration not stated)	–	inactive: -21.9% [at 46.1 µM]
CCCC(=O)NCCCc1nc2ccccc2n1CCC	inconclusive: 29.1 µM [activator, single point]	–
CCCC/C(=N\O)c1c[nH]c2ccccc12	inconclusive: 23.1 µM [inhibitor, partial curve, poor fit]	–
COc1ccc(CCN(C)Cc2ccc(C(=O)Nc3ccccc3)cc2)cc1OC	inconclusive: 10 µM [inhibitor, partial curve, poor fit]	–
O=C(/C=C/c1ccccc1Cl)NCc1cccs1	active: 18.4 µM	–
CCn1ncc([N+](=O)[O-])c1C(=O)n1nc(C)cc1C	inconclusive: 0.316 µM [activator, full curve, poor fit]	–
COc1ccc(NC(=O)CC2C(=O)N(c3ccc(C)cc3)C(=O)N2Cc2ccc3c(c2)OCO3)cc1 (configuration not stated)	inconclusive: 25.1 µM [inhibitor, single point]	–
COc1cc(C(C)=O)ccc1OCc1cn(CC(=O)c2ccc(O)cc2)nn1	inconclusive: 1.25 µM [inhibitor, full curve, poor fit]	–
